PubChem BioAssay AID1671195, Yale University | 2021
The deposit covers about 22,000 reagents; this is a random part of them. About 1,510 of all reagents (6.9%) were called active. 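Active includes knockdowns raising or lowering LDL uptake; positive z-scores mean more uptake, negative mean less.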 The numbers tell different reagents against one gene apart.

- Aim: 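Knockdowns that increase or decrease uptake of fluorescent LDL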 (primary screen)
- Cells: human Huh7 hepatoma cells
- Knock-down reagent: siRNA pool against human genes, 18 nM
- Duration: about 2 to 2.5 days of knockdown, then 8 h LDL uptake
- Challenge: DiI-labelled LDL at 30 µg/ml for 8 h, in lipoprotein-deficient serum medium
- Detection: 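Fluorescent LDL signal imaged in cells, scaled to the plate median, robust z-score for each replicate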
- Direction: robust z-score: higher = more LDL uptake after knockdown
- Call rule: 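Active when two or more replicates show a robust z-score above 2 or below -2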

| robust z-score, replicate 1 | robust z-score, replicate 2 | robust z-score, replicate 3 | Outcome | Target gene | pool no. |
| --- | --- | --- | --- | --- | --- |
| -0.283 | 0.323 | -1.09 | inactive | SASH1 (GeneID 23328) | 1 |
| -1.84 | -1.95 | -2.09 | active | CD36 (GeneID 948) | 1 |
| 1.26 | -0.675 | -0.712 | inactive | DNAAF2 (GeneID 55172) | 1 |
| -0.232 | -0.217 | 0.234 | inactive | DAGLB (GeneID 221955) | 1 |
| 1.2 | -0.401 | 0.525 | inactive | LOC137485 (retired record) (GeneID 137485) | 1 |
| -0.432 | -0.378 | -0.48 | inactive | LOC728626 (GeneID 728626) | 1 |
| 0.234 | 1.91 | 0.576 | inactive | TASOR (GeneID 23272) | 1 |
| 2.69 | 3.11 | 0.724 | active | CCK (GeneID 885) | 1 |
| -1.22 | -1.08 | -1.89 | inactive | ALDH4A1 (GeneID 8659) | 1 |
| -0.197 | 0.179 | 0.371 | inactive | MBD3 (GeneID 53615) | 1 |
| -0.165 | -0.0685 | -0.283 | inactive | TPT1P4 (GeneID 285741) | 1 |
| -0.368 | 0.0682 | -1.06 | inactive | SEC24B (GeneID 10427) | 1 |
| 1.79 | 0.919 | 1.12 | inactive | FHL3 (GeneID 2275) | 1 |
| -0.511 | -0.876 | 0.322 | inactive | CLCNKA (GeneID 1187) | 1 |
| 0.414 | 0.0157 | 0.411 | inactive | LINC01061 (GeneID 401149) | 1 |
| 0.0957 | -0.489 | -0.372 | inactive | OR5D16 (GeneID 390144) | 1 |
| -0.679 | -0.932 | -0.126 | inactive | MYOZ3 (GeneID 91977) | 1 |
| -0.47 | -0.587 | -0.577 | inactive | NAV3 (GeneID 89795) | 1 |
| -1.21 | -0.362 | -0.323 | inactive | SMPD5 (GeneID 392275) | 1 |
| 1.35 | -0.257 | 1.1 | inactive | PRKCE (GeneID 5581) | 1 |
| -0.76 | -0.976 | -1.58 | inactive | SCRT2 (GeneID 85508) | 1 |
| -0.801 | -0.484 | -0.0997 | inactive | PDE6A (GeneID 5145) | 1 |
| -2.35 | -2.37 | -2.23 | active | PGAM2 (GeneID 5224) | 1 |
| -1.15 | -0.847 | -1.02 | inactive | RDH16 (GeneID 8608) | 1 |
| -1.3 | -1.16 | -1 | inactive | XTBD1 (GeneID 91368) | 1 |
| 0.661 | -0.406 | 0.602 | inactive | BPIFA2 (GeneID 140683) | 1 |
| 0.00517 | 0.397 | 0.316 | inactive | NTSR1 (GeneID 4923) | 1 |
| 0.428 | 0.3 | 0.553 | inactive | TACSTD2 (GeneID 4070) | 1 |
| 1.72 | 2.62 | 2.6 | active | CNR1 (GeneID 1268) | 1 |
| 0.84 | 0.985 | 0.687 | inactive | LEF1 (GeneID 51176) | 1 |
| 1.67 | 0.329 | 0.589 | inactive | LOC441243 (retired record) (GeneID 441243) | 1 |
| -0.498 | -1.17 | 0.523 | inactive | CHODL (GeneID 140578) | 1 |
| -1.11 | -1.2 | -0.329 | inactive | KANSL2 (GeneID 54934) | 1 |
| 1.24 | -0.248 | 0.183 | inactive | PPARD (GeneID 5467) | 1 |
| 0.609 | -1.68 | 0.164 | inactive | ABCB11 (GeneID 8647) | 1 |
| -0.688 | -0.464 | -0.533 | inactive | VBP1 (GeneID 7411) | 1 |
| -2.37 | -2.55 | -2.56 | active | YIF1B (GeneID 90522) | 1 |
| 1.65 | 0.524 | 0.985 | inactive | YIF1B (GeneID 90522) | 2 |
| -0.82 | -1.13 | -0.769 | inactive | SSTR3 (GeneID 6753) | 1 |
| -1.25 | -0.401 | -0.403 | inactive | PPM1H (GeneID 57460) | 1 |
| -0.892 | -1.06 | -0.575 | inactive | IL6R (GeneID 3570) | 1 |
| 0.472 | 0.582 | -0.0122 | inactive | DEFB125 (GeneID 245938) | 1 |
| 0.684 | -0.405 | -1.34 | inactive | BLTP2 (GeneID 9703) | 1 |
| 1.69 | 1.66 | 1.48 | inactive | PTP4A1 (GeneID 7803) | 1 |
| 0.244 | 2.4 | -0.291 | inactive | FAIM2 (GeneID 23017) | 1 |
| 0.763 | 0.131 | -0.0149 | inactive | PGR (GeneID 5241) | 1 |
| -0.349 | 0.222 | -0.62 | inactive | TRPS1 (GeneID 7227) | 1 |
| 2.4 | 1.11 | 1.55 | inactive | PRED4 (retired record) (GeneID 400858) | 1 |
| -1.2 | -0.81 | -1.28 | inactive | CD63 (GeneID 967) | 1 |
| -1.25 | -1.42 | -1.19 | inactive | LOC441888 (retired record) (GeneID 441888) | 1 |
| -1.06 | -1.29 | -0.945 | inactive | SLC26A2 (GeneID 1836) | 1 |
| -0.594 | -0.873 | -1.2 | inactive | FAM53A (GeneID 152877) | 1 |
| -0.243 | -0.656 | -0.228 | inactive | LOC441367 (retired record) (GeneID 441367) | 1 |
| -1.02 | -0.847 | -0.954 | inactive | KSR2 (GeneID 283455) | 1 |
| 0.578 | 0.909 | 0.252 | inactive | EQTN (GeneID 54586) | 1 |
| -0.636 | -0.617 | -0.404 | inactive | ZNF740 (GeneID 283337) | 1 |
| -0.55 | -0.73 | -0.365 | inactive | SPG7 (GeneID 6687) | 1 |
| -0.476 | -0.852 | -0.194 | inactive | GRIN2D (GeneID 2906) | 1 |
| 0.0527 | 0.265 | 0.314 | inactive | LINC01098 (GeneID 285501) | 1 |
| 0.245 | -0.0806 | -0.973 | inactive | LOC389188 (retired record) (GeneID 389188) | 1 |
| -0.239 | -1.73 | -1.09 | inactive | TRIM7 (GeneID 81786) | 1 |
| -0.861 | -1.04 | -0.323 | inactive | TRPV2 (GeneID 51393) | 1 |
| -0.82 | -0.909 | -0.764 | inactive | TMEM225 (GeneID 338661) | 1 |
| -0.0227 | -1.36 | -1.42 | inactive | MRPS10 (GeneID 55173) | 1 |
| 0.81 | 0.48 | -0.9 | inactive | TGFB2 (GeneID 7042) | 1 |
| 0.479 | 0.204 | 0.148 | inactive | ZNF724 (GeneID 440519) | 1 |
| 0.323 | -1 | -1.04 | inactive | OR2W1 (GeneID 26692) | 1 |
| 1.22 | 1.08 | 0.18 | inactive | ZC3HC1 (GeneID 51530) | 1 |
